Laboratory results taken from paper doi:10.1101/2023.09.08.556779, “Molecular model of a bacterial flagellar motor in situ reveals a “parts-list” of protein adaptations to increase torque” (bioRxiv, 2024).
Results are given in words; binding and its absence hold for the method and conditions named. In cells and extracts the contact can be indirect. Binding can be weak; no strength is given. Where a sequence is shown, tags or fusion partners need not be part of it.

Sequences of proteins named here, by UniProt entry; tags and fusion partners are left off. A change or cut given only in a name is not applied to a line headed by its entry.
UniProt Q0PA06: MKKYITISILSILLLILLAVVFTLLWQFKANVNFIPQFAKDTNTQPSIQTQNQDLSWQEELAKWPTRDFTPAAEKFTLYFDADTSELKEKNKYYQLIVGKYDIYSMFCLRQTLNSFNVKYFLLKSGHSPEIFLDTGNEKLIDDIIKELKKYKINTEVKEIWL

Molecular target: T1, PflB-3xFLAG (C. jejuni NCTC11168)
T1 sequence: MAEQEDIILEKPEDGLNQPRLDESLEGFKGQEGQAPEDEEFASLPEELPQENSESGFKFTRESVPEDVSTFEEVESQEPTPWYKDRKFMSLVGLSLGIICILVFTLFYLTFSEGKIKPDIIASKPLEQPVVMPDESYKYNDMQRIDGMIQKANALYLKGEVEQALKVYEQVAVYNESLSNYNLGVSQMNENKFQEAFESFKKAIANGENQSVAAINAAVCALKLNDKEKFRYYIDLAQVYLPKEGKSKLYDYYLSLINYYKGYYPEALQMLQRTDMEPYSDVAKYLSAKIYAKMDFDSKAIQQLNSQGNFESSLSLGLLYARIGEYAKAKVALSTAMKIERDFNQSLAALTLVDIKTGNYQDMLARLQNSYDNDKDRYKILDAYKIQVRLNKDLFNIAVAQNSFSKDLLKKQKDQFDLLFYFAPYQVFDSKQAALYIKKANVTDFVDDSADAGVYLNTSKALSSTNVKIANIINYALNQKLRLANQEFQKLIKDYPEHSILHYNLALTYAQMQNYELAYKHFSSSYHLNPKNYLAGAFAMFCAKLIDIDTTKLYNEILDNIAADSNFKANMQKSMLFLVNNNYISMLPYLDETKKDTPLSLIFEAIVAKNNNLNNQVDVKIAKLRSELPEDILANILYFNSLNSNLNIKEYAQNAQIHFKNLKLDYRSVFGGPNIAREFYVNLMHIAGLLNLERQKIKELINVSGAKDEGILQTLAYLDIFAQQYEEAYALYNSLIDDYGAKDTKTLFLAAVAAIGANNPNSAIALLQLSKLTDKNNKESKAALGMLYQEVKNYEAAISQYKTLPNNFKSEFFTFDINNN
Assay: co-IP; C. jejuni NCTC11168 with chromosomal 3xFLAG fusions; cleared lysate (buffer A with Triton X-100), anti-FLAG antibody and Protein A-Sepharose, 4 C; western blot with FlgP antisera or anti-GFP

In the case of PflD-sfGFP (from UniProt Q0PA06), the binding is reported as “binds”.
